These are yes or no findings as the source states them, for the method shown. Binding seen in cells or lysates may run through a third protein. A yes stands for co-enrichment or nearness to the bait. Other partners may have been found. For some assays here: Sequences can lack the tags named with a protein.
T1: Mub1-Flag (budding yeast) (UniProt Q03162)
T1 sequence: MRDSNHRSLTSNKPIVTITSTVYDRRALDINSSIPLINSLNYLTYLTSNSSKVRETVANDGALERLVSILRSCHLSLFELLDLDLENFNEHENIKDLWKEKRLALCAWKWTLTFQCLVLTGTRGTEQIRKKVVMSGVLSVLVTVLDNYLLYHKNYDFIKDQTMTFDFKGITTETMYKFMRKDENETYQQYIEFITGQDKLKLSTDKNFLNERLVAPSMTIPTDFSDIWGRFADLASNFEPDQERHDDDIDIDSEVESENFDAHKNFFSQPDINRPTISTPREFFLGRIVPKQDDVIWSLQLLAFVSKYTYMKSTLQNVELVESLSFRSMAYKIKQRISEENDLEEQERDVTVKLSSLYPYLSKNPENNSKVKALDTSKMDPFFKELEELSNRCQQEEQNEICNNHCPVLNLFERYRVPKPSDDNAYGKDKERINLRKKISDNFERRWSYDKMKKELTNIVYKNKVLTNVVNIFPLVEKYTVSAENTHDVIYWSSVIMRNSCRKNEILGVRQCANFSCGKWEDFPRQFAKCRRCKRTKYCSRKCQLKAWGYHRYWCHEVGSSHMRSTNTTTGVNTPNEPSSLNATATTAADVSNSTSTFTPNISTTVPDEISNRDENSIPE

Sequences of proteins named here, by UniProt entry; tags and fusion partners are left off.
UniProt P35201: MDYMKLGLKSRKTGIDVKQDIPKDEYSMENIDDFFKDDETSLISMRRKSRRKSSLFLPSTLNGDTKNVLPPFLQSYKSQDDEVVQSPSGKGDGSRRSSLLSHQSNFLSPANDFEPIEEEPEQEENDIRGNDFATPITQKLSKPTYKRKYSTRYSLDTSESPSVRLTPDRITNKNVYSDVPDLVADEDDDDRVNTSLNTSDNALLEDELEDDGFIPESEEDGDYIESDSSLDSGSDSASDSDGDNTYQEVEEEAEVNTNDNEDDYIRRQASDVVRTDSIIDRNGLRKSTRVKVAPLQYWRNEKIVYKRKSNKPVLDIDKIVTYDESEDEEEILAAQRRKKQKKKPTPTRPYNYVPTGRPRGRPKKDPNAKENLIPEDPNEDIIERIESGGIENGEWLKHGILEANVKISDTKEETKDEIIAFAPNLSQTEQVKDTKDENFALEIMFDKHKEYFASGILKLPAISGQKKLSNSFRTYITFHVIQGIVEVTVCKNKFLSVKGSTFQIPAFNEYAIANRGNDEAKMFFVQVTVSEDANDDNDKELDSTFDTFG

B1: Mub1 (protein, UniProt Q03162 1-620)
chain: T1 sequence

Assays:
[1] = target: T1, Mub1-Flag (budding yeast); test: affinity purification with mass spectrometry; Flag-tagged bait purified from budding yeast; associated proteins eluted with detergent and analysed with LTQ-Orbitrap
[2] = target: CENP-C^Mif2-Flag (budding yeast) (UniProt P35201); test: as above

Row | Molecule | binding [1] | binding [2]
1 | CENP-C^Mif2 (from UniProt P35201 1-549) | binds | 
2 | B1 |  | binds
